Source: PubChem BioAssay AID2417 (National Center for Advancing Translational Sciences (NCATS), 2010)
Screen size: about 140,000 compounds; about 4,300 (3.1%) were called active. This list was built around the results that the source calls inconclusive (neither active nor inactive); the mix of calls is not that of the screen.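 The calls were made as follows: active = readout at or below -70, meaning at least 70% loss of cells showing the perinucleolar compartment, a nuclear body marking cancer cells; inconclusive = readout between -30 and a set limit; inactive = the rest.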

Assay: High Content Assay for Compounds that inhibit the Assembly of the Perinucleolar Compartment;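 also: plate controls were DMSO wells for no effect and camptothecin positive control wells for full effect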
Details: PC3M PTB-GFP, PNC prevalence imaging, 16 h; at 10 µM; hits give low values
Outline: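 Compounds are pinned in duplicate onto adhered PC3M cells stably expressing GFP-tagged PTB and incubated 16 h at 37 C. Cells are then fixed, nuclei stained with Hoechst, and PNC-positive cells counted.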

SMILES | activity change (PNC), negative = inhibition
O=S(=O)(c1ccc(-c2nnc(SCc3ccccc3)o2)cc1)N1CCCC1 | inactive: 2.9%
C=CCSc1nnc(NC(=O)CSc2nc3ccccc3[nH]2)s1 | inactive: -5.86%
CCCNC(=O)c1ccc2c(c1)ncn2-c1ccccc1OC | inconclusive: -43.9%
COc1cccc(/C(O)=C/C(=O)C(=O)Nc2ccc(S(=O)(=O)NC(C)=O)cc2)c1 | inconclusive: -44.4%
O=C(Nc1ccccc1)c1ccc2nsnc2c1 | active: -106%
CCc1nc2ccccc2c(C(=O)OCC(=O)Nc2ccc(S(=O)(=O)N3CCOCC3)cc2)c1C | inconclusive: -61.6%
COc1ccc(C2C(C#N)=C(N)Oc3n[nH]c(C)c32)cc1Cn1nnc2ccccc21 (centres undefined) | inactive: 44.9%
Cc1cnc(C(=O)Nc2nc(-c3ccccc3)cs2)cn1 | inconclusive: -49.7%
CC1CC2=C(NC(=S)NC2c2ccc(F)cc2)/C(=C/c2ccc(F)cc2)C1 (centres undefined) | inactive: 75.2%
CC(C)(C)c1ccc(C(=O)NCC(=O)OCC(=O)Nc2ccc3c(c2)OCCO3)cc1 | inactive: 10.7%
Cc1cc(C)n2nc(SCc3nc4ccccc4[nH]3)nc2n1 | inconclusive: -30.1%
C=CCn1c(SCC(=O)N2CCN(c3ccc(F)cc3)CC2)nnc1-c1cccs1 | active: -96.3%
CC(C)(C)c1ccc(S(=O)(=O)CC(O)CSc2nc3c(cc2C#N)CCCC3)cc1 (centres undefined) | inactive: -20%
Oc1cccc(-c2nc3ccccc3s2)c1 | inconclusive: -49.9%
CC(C)C(=O)NC(NC(=O)C(C)C)c1ccc([N+](=O)[O-])cc1 | inconclusive: -44.1%
O=c1c2ccccc2nnn1CSc1nnc(-c2cccnc2)n1-c1ccccc1F | inactive: 5.36%
O=C(CNC(=S)N(CCCN1CCOCC1)Cc1cccs1)N1CCOCC1 | inconclusive: -30.5%
Cc1cc(S(=O)(=O)N(Cc2ccccc2Cl)c2ccc3c(c2)CCC3)ccc1-n1cnnn1 | inconclusive: -32.2%
CN(C)c1ccc(NC(=O)CCCc2ccccc2)cc1 | inconclusive: -64.9%
Cc1ccc(-n2c3nc(=O)[nH]c(=O)c-3cc3cc([N+](=O)[O-])ccc32)cc1 | inconclusive: -41%
O=C(CN1C(=O)NC2(CCCCC2)C1=O)NCc1cccs1 | inactive: -27.7%
O/N=C1\CCC\C1=C/c1ccco1 | inconclusive: -72.8%
CN(C)CCN(C(=O)c1ccccc1Cl)c1nc2c(Cl)cccc2s1 | inactive: -15.3%

SMILES | activity change (PNC), negative = inhibition
COc1ccnc(Nc2cccc(C)c2)c1C#N | inconclusive: -78.1%
Cn1nc(C(=O)Nc2nc3ccc(S(C)(=O)=O)cc3s2)ccc1=O | inconclusive: -30.5%
COc1ccc(C(=O)c2ccc(N(C)C)cc2)c(OC)c1 | inconclusive: -79.3%
Cc1ccc(CCSc2ccc(C(C)C)cc2)cn1 | inactive: 39.6%
CCN(CC)CCNC(=O)c1ccc(N2CCCCC2)c(NS(=O)(=O)c2ccc(C)cc2)c1 | inactive: -19.5%
CCn1c(COc2ccccc2)nnc1SCC(=O)Nc1cc(OC)ccc1OC | inconclusive: -64%
Clc1c(-c2nnc3n2CCC3)sc2ccccc12 | inactive: 33.6%
S=C(NCCN1CCOCC1)Nc1ccccc1Cl | inconclusive: -37.7%
CCOC(=O)c1nnn(-c2nonc2N)c1CS(=O)(=O)c1ccccc1 | inconclusive: -30.7%
COc1ccc(C(C)=O)cc1CSc1nncn1-c1ccccc1 | inconclusive: -34.7%
CNC(=S)N/N=C/c1cccc(OCc2ccccc2F)c1 | inconclusive: -55.6%
COc1ccc(C(=O)Nc2sc(C)c(-c3ccccc3)c2C#N)cc1OC | inconclusive: -32.6%
Cc1ccc(NC(=O)CSc2ncnc3ccccc23)cc1S(=O)(=O)N1CCCCC1 | inconclusive: -62.8%
Cc1cc(/C=C(\C#N)C(=O)NCC2CCCO2)c(C)n1-c1ccc(Cl)cc1 (centres undefined) | inconclusive: -40.4%
CCN(CC)c1ccc(NC(=O)c2cnccn2)cc1S(=O)(=O)Nc1ccc(OC)cc1 | inconclusive: -63.7%
Cn1ncc(C#N)c1/N=C/N1CCOCC1 | inconclusive: -55%
O=C(Nc1cnn(Cc2ccc(Cl)cc2Cl)c1)c1cc(-c2cccs2)on1 | inactive: -15.2%
O=C(CCOc1ccccc1)Nc1cccc(S(=O)(=O)Nc2ccccc2Cl)c1 | inconclusive: -51.3%
O=C(Nc1ccccc1)Nc1ccccc1C(=O)NCc1ccco1 | inconclusive: -60.6%
Cc1cc(C)nc(SCC(=O)Nc2ncc(Cc3ccc(Cl)c(Cl)c3)s2)n1 | active: -113%
COc1cc(OC)cc(-n2nnnc2SCC(=O)NCc2ccc3c(c2)OCO3)c1 | inconclusive: -46.8%
CCCCC(=O)Nc1ccc(NC(=S)NC(=O)c2cccs2)cc1OC | inconclusive: -58.6%
COc1ccc(CCNc2oc(COc3ccc(Br)cc3)nc2C#N)cc1OC | inactive: -6.5%

A draw from above in order of molecular weight, smallest number first.
SMILES | activity change (PNC), negative = inhibition
Cn1ncc(C#N)c1/N=C/N1CCOCC1 | inconclusive: -55%
O=C(Nc1ccccc1)Nc1ccccc1C(=O)NCc1ccco1 | inconclusive: -60.6%
CCn1c(COc2ccccc2)nnc1SCC(=O)Nc1cc(OC)ccc1OC | inconclusive: -64%
Cc1ccc(NC(=O)CSc2ncnc3ccccc23)cc1S(=O)(=O)N1CCCCC1 | inconclusive: -62.8%

(more compounds)

SMILES | activity change (PNC), negative = inhibition
Cc1nn2c3c(cnc2c1-c1ccccc1)C(=O)CC(c1ccco1)C3 (centres undefined) | inactive: -20.4%
S=c1[nH]nc(CCc2ccccc2)n1-c1ccccc1 | inactive: 7.24%
O=C(Nc1nc2c(s1)CCCC2)c1ccc2ncsc2c1 | inconclusive: -32.8%
COc1cccc(NC(=O)Nc2cc(NC(=O)Nc3cccc(OC)c3)c(C)nc2C)c1 | inconclusive: -49.5%
COc1ccc(C(=O)Oc2cccc(/C=N/NC(N)=S)c2)cc1 | inconclusive: -31.1%
COCCN(Cc1cc2cc(C)c(C)cc2nc1Cl)C(=O)Nc1ccccc1 | inconclusive: -61.4%
Cc1ccc(S(=O)(=O)N(CC(=O)Nc2ccccc2C(=O)O)c2cccc(Cl)c2C)cc1 | inconclusive: -39.6%
Cc1ccc(Cn2nnc3c(=O)n(CC(=O)N4CCN(c5ccccc5)CC4)cnc32)cc1 | inconclusive: -52.9%
Cc1nc(NCCc2ccccc2F)c(C#N)c(C)c1[N+](=O)[O-] | inconclusive: -78.2%
Nc1nnnn1/N=C/c1ccc(N2CCCCC2)c([N+](=O)[O-])c1 | inactive: -1.89%
COc1ccc(NC2CC(=O)N(C(C)C)C2=O)cc1 (centres undefined) | inconclusive: -56.6%
COc1cccc(CSc2nc3cc4c(cc3cc2C)OCCO4)c1 | inconclusive: -38.1%
Cc1ccc(-c2nn(-c3ccccc3)cc2CN(Cc2ccccc2)C(=O)CCC(=O)O)o1 | inconclusive: -30.1%
CCOC(=O)c1c(N)c(C#N)nn1-c1ccccc1C(=O)OC | inconclusive: -42%
O=C(Nc1ccccc1Oc1ccccc1)c1ccccc1F | inactive: 40.7%
CN(C)c1ccc(-c2nn3c(C4CCCCC4)nnc3s2)cc1 | inconclusive: -47.5%
COc1ccc(CNC(=O)C2CC(=O)N(c3ccc(OCC(=O)N4C(C)CCCC4C)cc3)C2)cc1 (centres undefined) | inconclusive: -38.5%
C=CCSc1nnc(-c2ccncc2)n1-c1ccc(OCC)cc1 | inconclusive: -36.8%
Cc1ccc(SCCNC(=O)c2cccc([N+](=O)[O-])c2C)cc1 | inactive: 16.7%
CN(C)c1nc(SCCOC(=O)COc2ccc(Cl)cc2Cl)nc(N(C)C)n1 | inactive: 29.4%
COc1cccc(C2CC(c3ccc(Cl)cc3Cl)n3nc(N)nc3N2)c1 (centres undefined) | inconclusive: -37.2%
CC1CN(C(=O)c2ccc(C(=O)c3ccccc3)cc2)CC(C)O1 (centres undefined) | inactive: -14.9%
COc1ccc(NC(=O)C(Sc2nnc(-c3ccncc3)n2-c2ccccc2C)c2ccccc2)cc1Cl (centres undefined) | inconclusive: -30.7%

SMILES | activity change (PNC), negative = inhibition
O=C(O)c1cnn2c1NC(c1cccs1)CC2C(F)(F)F (centres undefined) | inconclusive: -56.6%
CCN1CCN(C(=S)Nc2ccc([N+](=O)[O-])cc2)CC1 | inconclusive: -56.4%
COc1cccc(C(=O)N2CCN(Cc3ccccc3[N+](=O)[O-])CC2)c1 | inconclusive: -38.7%
CN(C)CCCN(Cc1ccccc1)C(=S)Nc1ccc(OC(F)F)cc1 | inconclusive: -30.2%
Cc1cccc(N2CCCC2=Nc2ccc(Br)cc2C#N)c1 | inconclusive: -44%
COC(=O)C(C)Sc1nnc(Cc2cc(=O)[nH]c(=O)[nH]2)n1-c1cccc(OC)c1 (centres undefined) | inconclusive: -78.1%
COc1cccc(C2C(C(N)=O)=C(C)Nc3nc(CCCO)nn32)c1OC (centres undefined) | inconclusive: -73.2%
Cc1onc(-c2ccccc2Cl)c1C(=O)Nc1ccc(CN2CCCC2)cc1 | inconclusive: -35%
COc1ccc(-c2nnnn2C)cc1S(=O)(=O)NCc1ccccc1 | inconclusive: -38.4%
CC(C)(C)OC(=O)N1CCOCCOCCN(C(=O)OC(C)(C)C)CCOCCOCC1 | inconclusive: -36.7%
O=C(Nc1ccc(Cl)cc1)Nc1cccnc1 | inconclusive: -50.8%
COc1ccc(-n2c(SCC(=O)Nc3nc(C)cs3)nnc2-c2ccoc2C)cc1 | inconclusive: -61.7%
O=C(Nc1ccc(N2CCCC2)c(S(=O)(=O)Nc2cccc(C(F)(F)F)c2)c1)c1cccs1 | inactive: 77.7%
COc1ccccc1CN1CC(C(=O)N2CCN(c3ccc(F)cc3)CC2)CC1=O (centres undefined) | active: -98.5%
COC(=O)c1c(NC(=O)CN2CCOCC2)sc2c1CCC(C)C2 (centres undefined) | inconclusive: -41%
O=C(COc1ccccc1)Nc1cccc2c1CCCC2 | inconclusive: -53.3%
Fc1ccc2[nH]c3c(N4CCN(Cc5ccc6c(c5)OCO6)CC4)ncnc3c2c1 | inconclusive: -46.9%
CC1Cc2nc(SCC(=O)Nc3nc4ccccc4s3)n(C)c(=O)c2S1 (centres undefined) | inactive: 1.15%
CCCC(=O)NC(=S)Nc1ccccc1N1CCOCC1 | inconclusive: -50.1%
Cc1nn(-c2ccccc2)c2c1C(c1ccc(F)cc1F)C(C#N)=C(N)O2 (centres undefined) | inconclusive: -55.2%
